The record followed here is publication PMC10901513.

By UniProt entry, the sequences of proteins in these tests, tags left out. Where a name states a change or a piece, a line headed by the entry shows the natural chain unless it says otherwise.
UniProt Q15910: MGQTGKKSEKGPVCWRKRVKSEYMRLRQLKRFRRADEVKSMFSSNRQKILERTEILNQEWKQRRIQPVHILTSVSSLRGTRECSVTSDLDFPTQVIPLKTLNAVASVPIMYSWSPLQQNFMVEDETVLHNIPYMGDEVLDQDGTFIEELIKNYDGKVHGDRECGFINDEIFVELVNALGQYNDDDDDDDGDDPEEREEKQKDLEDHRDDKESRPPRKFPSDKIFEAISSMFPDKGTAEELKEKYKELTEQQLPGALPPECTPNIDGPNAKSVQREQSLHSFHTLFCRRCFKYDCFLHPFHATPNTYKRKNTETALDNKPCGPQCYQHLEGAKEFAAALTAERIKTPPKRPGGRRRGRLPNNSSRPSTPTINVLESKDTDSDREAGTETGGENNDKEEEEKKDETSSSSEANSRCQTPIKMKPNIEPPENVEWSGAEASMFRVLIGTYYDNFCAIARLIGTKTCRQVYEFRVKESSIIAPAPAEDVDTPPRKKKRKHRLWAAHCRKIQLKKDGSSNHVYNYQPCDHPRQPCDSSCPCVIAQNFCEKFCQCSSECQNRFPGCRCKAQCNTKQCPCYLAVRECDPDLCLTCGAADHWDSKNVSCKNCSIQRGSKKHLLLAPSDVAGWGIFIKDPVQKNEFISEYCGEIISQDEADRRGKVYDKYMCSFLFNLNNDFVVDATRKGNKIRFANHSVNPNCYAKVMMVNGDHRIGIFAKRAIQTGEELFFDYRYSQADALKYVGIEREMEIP

Assay [1] addresses EZH2 (enhancer of Zeste homolog 2), mouse, wild type (mouse (endogenous in mouse embryos and MEFs)), Q61188. Description: co-IP; lysates of primary Ezh2 wild-type and K20R mutant MEFs immunoprecipitated with anti-EZH2, blotted for histone H3, SUZ12 and EED; K20R MEFs also with or without MK2206 (2 uM, 4 hr). The note with it: remark: other sources report otherwise.
The target of assay [2] is HA-tagged EZH2, wild type (human) (UniProt Q15910). Description: co-IP; 293T cells co-transfected with HA-EZH2 or HA-K20R and Set7 or empty vector; lysates immunoprecipitated with anti-HA, blotted with anti-L3MBTL3 and anti-HA.
For assay [3], the target named is HA-tagged EZH2 K20R mutant (human) (UniProt Q15910). Described as above.

No constants are given. Whether binding was seen depends on the method and setting. Binding seen in cells or lysates may run through a third protein. Some entries that bind do so weakly or less than the wild type.

B1: SUZ12 (suppress of Zeste 12), mouse, Q80U70 1-741 (protein)
chain: MAPQKHGGGGGGGSGPSAGSGGGGFGGSAAAVAAAASGGKSGGGGCGGGGSYSASSSSAAAAAAAAGAAVLPVKKPKMEHVQADHELFLQAFEKPTQIYRFLRTRNLIAPIFLHRTLTYMSHRNSRTSIKRKTFKVDDMLSKVEKMKGEQESHSLSAHLQLTFTGFFHKNDKPSQNSENEQNSVTLEVLLVKVCHKKRKDVSCPIRQVPTGKKQVPLNPDLNQTKPGNFPSLAVSSNEFEPSNSHMVKSYSLLFRVTRPGRREFNGMINGETNENIDVSEELPARRKRNREDGEKTFVAQMTVFDKNRRLQLLDGEYEVAMQEMEECPISKKRATWETILDGKRLPPFETFSQGPTLQFTLRWTGETNDKSTAPVAKPLATRNSESLHQENKPGSVKPAQTIAVKETLTTELQTRKEKDNSNESRQKLRIFYQFLYNNNTRQQTEARDDLHCPWCTLNCRKLYSLLKHLKLCHSRFIFNYVYHPKGARIDVSINECYDGSYAGNPQDIHRQPGFAFSRNGPVKRTPITHILVCRPKRTKASMSEFLESEDGEVEQQRTYSSGHNRLYFHSDTCLPLRPQEMEVDSEDEKDPEWLREKTITQIEEFSDVNEGEKEVMKLWNLHVMKHGFIADNQMNHACMLFVENYGQKIIKKNLCRNFMLHLVSMHDFNLISIMSIDKAVTKLREMQQKLEKGESATPSNEEIAEEQNGTANGFSETNSKEKALETDGVSGVPKQSKKQKL
Consider B1, for which the binding result in assay [1] is on record as “binds”.

B2: L3MBTL3, human, endogenous (protein, UniProt Q96JM7 1-780)
chain: MTESASSTSGQEFDVFSVMDWKDGVGTLPGSDLKFRVNEFGALEVITDENEMENVKKATATTTWMVPTAQEAPTSPPSSRPVFPPAYWTSPPGCPTVFSEKTGMPFRLKDPVKVEGLQFCENCCQYGNVDECLSGGNYCSQNCARHIKDKDQKEERDVEEDNEEEDPKCSRKKKPKLSLKADTKEDGEERDDEMENKQDVRILRGSQRARRKRRGDSAVLKQGLPPKGKKAWCWASYLEEEKAVAVPAKLFKEHQSFPYNKNGFKVGMKLEGVDPEHQSVYCVLTVAEVCGYRIKLHFDGYSDCYDFWVNADALDIHPVGWCEKTGHKLHPPKGYKEEEFNWQTYLKTCKAQAAPKSLFENQNITVIPSGFRVGMKLEAVDKKNPSFICVATVTDMVDNRFLVHFDNWDESYDYWCEASSPHIHPVGWCKEHRRTLITPPGYPNVKHFSWDKYLEETNSLPAPARAFKVKPPHGFQKKMKLEVVDKRNPMFIRVATVADTDDHRVKVHFDGWNNCYDYWIDADSPDIHPVGWCSKTGHPLQPPLSPLELMEASEHGGCSTPGCKGIGHFKRARHLGPHSAANCPYSEINLNKDRIFPDRLSGEMPPASPSFPRNKRTDANESSSSPEIRDQHADDVKEDFEERTESEMRTSHEARGAREEPTVQQAQRRSAVFLSFKSPIPCLPLRWEQQSKLLPTVAGIPASKVSKWSTDEVSEFIQSLPGCEEHGKVFKDEQIDGEAFLLMTQTDIVKIMSIKLGPALKIFNSILMFKAAEKNSHNEL
B2: the figures for the binding result in assay [2] and in assay [3] were “binds” and “no binding”, respectively.
